# In PubChem BioAssay AID2685 (National Center for Advancing Translational Sciences (NCATS), 2010):
# Screen size: about 320,000 compounds; about 2,100 (0.66%) were called active. The inconclusive results got no clear call from the source; some entries with a clear call stand among them for comparison. Calls follow the shape of the dose curve; as a rule, active = well fitted inhibition curve with a large enough effect in the signal ratio, with a control signal flat (not every such curve was filed as active); inconclusive = small, poorly fitted or top-dose-only effect, or effect the other way, or a change in a side signal; inactive = flat fitted curve, though single readings scatter; the % refers to the signal ratio. Potencies of inconclusive entries are doubtful fits and often do not repeat.
# Assay: qHTS Assay for Lipid Storage Modulators in Drosophila S3 Cells
# Conditions: BODIPY lipid droplet fluorescence, 18-24 h, cells fed with added oleic acid; lipid storage change, negative = inhibition: at 46.1 µM (top of the series) unless noted
# In short: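 Drosophila S3 cells got compounds at several concentrations plus oleic acid (400 uM solution). Laser-scanning cytometry with 488 nm excitation read lipid droplets at 500-530 nm and cells at 575-640 nm. Percent activity was relative to 20 uM Triacsin C.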
# % is scaled to controls: 0 for no effect and ±100 for the full control effect; potency is read from the fitted curve at half-maximal effect.
Compound,"lipid storage change, negative = inhibition",Potency
COc1ccc(OC)c(NC(=O)CSc2nc3ccccc3c(=O)n2CCNC(C)=O)c1,inconclusive: -21.3%,–
CCc1ccc(/C=C/c2c([N+](=O)[O-])c(=O)n(C)c(=O)n2C)cc1,–,"inconclusive: 2.59 µM [falling, partial curve]"
O=C(O)CCCNC(=O)OCc1ccccc1,inconclusive: 19.8%,–
CCSc1nc2ccccc2n1S(=O)(=O)c1ccccc1,inconclusive: -35.3%,–
O=C(c1ccc2[nH]ccc2c1)N1CCCC(Nc2ccccc2)C1 (stereo not drawn),–,"inconclusive: 7.31 µM [activator, partial curve, poor fit]"
COc1ccc(NS(=O)(=O)c2cc(N/C(=N\S(=O)(=O)c3ccccc3)c3ccc(F)cc3)ccc2Cl)cc1,inconclusive: 116%,–
O=C(Nc1ccc(F)cc1F)c1cc2ncc(CCCl)cn2n1,inconclusive: -2.05%,–
O=C(CCCc1nc(-c2ccccc2)no1)NCc1cccnc1,–,"inconclusive: 9.2 µM [cytotoxic, partial curve, poor fit]"
O=C(COc1ccc(Cl)cc1)Nc1ccc(C(=O)O)cc1NC(=O)COc1ccc(Cl)cc1,inconclusive: 3.15%,–
COc1ccccc1NC(=O)CN(c1ccc([N+](=O)[O-])cc1)S(=O)(=O)c1ccccc1,inconclusive: 21.3%,–
Cc1nc([N+](=O)[O-])c(C(=O)OCc2cccc(Br)c2)n1C,inactive: 7.28%,–
Cc1ccc(C(=O)NCc2ccncc2)cc1S(=O)(=O)Nc1cccc(C)c1C,inconclusive: 78%,–
COc1ccc(N(CC(=O)NCc2ccc(F)cc2)C(=O)c2snc(C(N)=O)c2N)cc1,inconclusive: -49.6%,–
CN(C)c1cccc(NC(=O)c2ccco2)c1,–,"inconclusive: 0.82 µM [falling, full curve, poor fit]"
Cn1c(=O)c2sccc2n2c(CCCC(=O)NC3CCN(Cc4ccccc4)CC3)nnc12,–,"inconclusive: 29.1 µM [falling, single point]"
O=C(NCCCn1ccnc1)c1cc(S(=O)(=O)N2CCOCC2)c(Cl)cc1Cl,inconclusive: -14%,–
OCC(CO)(CO)n1cnnn1,inconclusive: -106%,–
O=C(NCC1CCCO1)C1CC(c2ccccc2Cl)=NO1 (stereo not drawn),inconclusive: -87%,–
CCOC(=O)C1CCN(C(=O)c2ccccc2NS(=O)(=O)c2ccc(F)c(F)c2)CC1,inconclusive: 19.1%,–

# Ordered by length of the SMILES (largest number first): some entries from above.
Compound,"lipid storage change, negative = inhibition",Potency
O=C(COc1ccc(Cl)cc1)Nc1ccc(C(=O)O)cc1NC(=O)COc1ccc(Cl)cc1,inconclusive: 3.15%,–
COc1ccc(N(CC(=O)NCc2ccc(F)cc2)C(=O)c2snc(C(N)=O)c2N)cc1,inconclusive: -49.6%,–
COc1ccc(OC)c(NC(=O)CSc2nc3ccccc3c(=O)n2CCNC(C)=O)c1,inconclusive: -21.3%,–
O=C(NCCCn1ccnc1)c1cc(S(=O)(=O)N2CCOCC2)c(Cl)cc1Cl,inconclusive: -14%,–
O=C(Nc1ccc(F)cc1F)c1cc2ncc(CCCl)cn2n1,inconclusive: -2.05%,–
O=C(CCCc1nc(-c2ccccc2)no1)NCc1cccnc1,–,"inconclusive: 9.2 µM [cytotoxic, partial curve, poor fit]"
CN(C)c1cccc(NC(=O)c2ccco2)c1,–,"inconclusive: 0.82 µM [falling, full curve, poor fit]"
O=C(O)CCCNC(=O)OCc1ccccc1,inconclusive: 19.8%,–

# (list continues)

Compound,"lipid storage change, negative = inhibition",Potency
N#CC(c1ccc(Cl)nn1)c1c(F)cccc1Cl (stereo not drawn),inconclusive: -17.9%,–
CCCC1(CCC)NC(=O)NC1=O,–,"inconclusive: 29.1 µM [cytotoxic, single point]"
Cc1ccc(-c2nc(CSCC(=O)N3CCN(C(=O)c4ccco4)CC3)c(C)o2)cc1,inconclusive: -21.1%,–
CC(C(=O)Nc1sc2c(c1C#N)CCCCC2)N1C(=O)c2ccccc2C1=O (stereo not drawn),–,"inconclusive: 0.366 µM [falling, full curve]"
O=C(NCC(c1cccnc1)N1CCN(c2ccccc2F)CC1)OCc1ccccc1 (stereo not drawn),–,"inconclusive: 4.61 µM [activator, full curve, poor fit]"
Cc1cc(=O)oc2c(C)c(OCC(=O)N3CCC(C(=O)O)CC3)ccc12,inconclusive: 23.8%,–
CCOC(=O)Cn1c(=O)c2c(nc3n2CCS3)n(C)c1=O,inactive: 11.5%,–
NS(=O)(=O)c1ccc(NC(=O)COC(=O)CNC(=O)C23CC4CC(CC(C4)C2)C3)cc1,inconclusive: -24.1%,–
CC(C)C(NS(=O)(=O)c1ccc2c3c(cccc13)C(=O)N2)C(=O)O (stereo not drawn),inactive: 6.99%,–
O=C(Nc1cccc2ccccc12)N1CCN(Cc2ccc3c(c2)OCO3)CC1,–,"inconclusive: 0.411 µM [activator, full curve]"
COc1cccc(-c2nnc(SCC(=O)OC(C)C)n2Cc2ccco2)c1,–,"inconclusive: 16.4 µM [activator, single point]"
CCOC(=O)C1CCN(C(=O)c2cc(C(C)(C)C)nn2Cc2ccccc2)CC1,inconclusive: -23.6%,–
CC12CCC(C(=O)O)(c3nc(C#N)c(C#N)nc31)C2(C)C (stereo not drawn),inconclusive: 10.7%,–
CCOC(=O)C1=C(C)NC(C)=C(C(=O)OCC)C1c1cccs1,inconclusive: -26.1%,–
COc1ccc(NC(=O)c2ccco2)c(NC(=O)Cc2cccs2)c1,–,"inconclusive: 0.651 µM [activator, full curve, poor fit]"
COc1ccccc1C(=O)NCCC(=O)Nc1ncccc1C,inconclusive: -42.2%,–
Cc1cccc(Oc2ccc3c(c2)cc(C(=O)O)n3C)c1,–,"inconclusive: 1.16 µM [activator, full curve]"
COc1ccc(-c2cn(-c3ccc(Br)cc3)c3[n+]2CCS3)cc1,inconclusive: 29.7%,–
CN(C)c1ccc(/C=C(\NC(=O)c2ccccc2)C(=O)NCCCN2CCOCC2)cc1,–,"inconclusive: 0.0517 µM [activator, full curve, poor fit]"
